Results published in publication PMC13586351.
No constants are given. Whether binding was seen depends on the method and setting. Binding seen in cells or lysates may run through a third protein. Here binding means that the protein was enriched with, or labelled near, the bait; the list need not be complete. A no says only that the protein was not detected with the bait. Each block holds one molecule with its values, some of them ahead of it.

The chains behind the UniProt entries cited, without tags or fusion partners.
UniProt Q17RN3: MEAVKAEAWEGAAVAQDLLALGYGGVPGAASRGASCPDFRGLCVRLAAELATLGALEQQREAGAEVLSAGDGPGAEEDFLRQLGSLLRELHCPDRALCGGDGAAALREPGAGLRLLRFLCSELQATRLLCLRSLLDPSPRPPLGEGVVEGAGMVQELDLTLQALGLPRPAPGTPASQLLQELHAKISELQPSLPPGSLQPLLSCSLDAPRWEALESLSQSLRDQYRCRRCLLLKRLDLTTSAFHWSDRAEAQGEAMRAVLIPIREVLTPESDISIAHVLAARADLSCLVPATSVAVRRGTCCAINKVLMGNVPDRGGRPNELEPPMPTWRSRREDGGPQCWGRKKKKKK
UniProt Q9BVC5: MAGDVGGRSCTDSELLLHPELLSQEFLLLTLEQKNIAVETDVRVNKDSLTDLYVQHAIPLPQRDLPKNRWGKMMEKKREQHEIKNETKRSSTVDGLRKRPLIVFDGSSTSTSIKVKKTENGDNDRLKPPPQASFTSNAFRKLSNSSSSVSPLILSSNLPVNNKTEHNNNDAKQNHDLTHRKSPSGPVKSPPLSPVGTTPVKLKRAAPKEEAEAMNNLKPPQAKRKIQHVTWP

What was measured:
[1] = target: 3xFLAG-tagged FAM98A (HEK293T) (human) (UniProt Q8NCA5); assay: affinity purification with mass spectrometry; N-terminally 3xFLAG-tagged FAM98A/B/C overexpressed in HEK293T, anti-FLAG M2 resin, 150 mM KCl, 20 mM HEPES-KOH pH 7.8, 0.1% Tween-20; 3xFLAG-mEGFP as negative control; triplicates
[2] = target: 3xFLAG-tagged FAM98C (HEK293T) (human) (UniProt Q17RN3); assay: as above

B1: DDX1 (endogenous, HEK293T) (enzyme, UniProt Q92499 1-740)
chain: MAAFSEMGVMPEIAQAVEEMDWLLPTDIQAESIPLILGGGDVLMAAETGSGKTGAFSIPVIQIVYETLKDQQEGKKGKTTIKTGASVLNKWQMNPYDRGSAFAIGSDGLCCQSREVKEWHGCRATKGLMKGKHYYEVSCHDQGLCRVGWSTMQASLDLGTDKFGFGFGGTGKKSHNKQFDNYGEEFTMHDTIGCYLDIDKGHVKFSKNGKDLGLAFEIPPHMKNQALFPACVLKNAELKFNFGEEEFKFPPKDGFVALSKAPDGYIVKSQHSGNAQVTQTKFLPNAPKALIVEPSRELAEQTLNNIKQFKKYIDNPKLRELLIIGGVAARDQLSVLENGVDIVVGTPGRLDDLVSTGKLNLSQVRFLVLDEADGLLSQGYSDFINRMHNQIPQVTSDGKRLQVIVCSATLHSFDVKKLSEKIMHFPTWVDLKGEDSVPDTVHHVVVPVNPKTDRLWERLGKSHIRTDDVHAKDNTRPGANSPEMWSEAIKILKGEYAVRAIKEHKMDQAIIFCRTKIDCDNLEQYFIQQGGGPDKKGHQFSCVCLHGDRKPHERKQNLERFKKGDVRFLICTDVAARGIDIHGVPYVINVTLPDEKQNYVHRIGRVGRAERMGLAISLVATEKEKVWYHVCSSRGKGCYNTRLKEDGGCTIWYNEMQLLSEIEEHLNCTISQVEPDIKVPVDEFDGKVTYGQKRAAGGGSYKGHVDILAPTVQELAALEKEAQTSFLHLGYLPNQLFRTF
binding [1]: binds
binding [2]: binds

B3: CGI-99 (endogenous, HEK293T) (protein, UniProt Q9Y224 1-244)
chain: MFRRKLTALDYHNPAGFNCKDETEFRNFIVWLEDQKIRHYKIEDRGNLRNIHSSDWPKFFEKYLRDVNCPFKIQDRQEAIDWLLGLAVRLEYGDNAEKYKDLVPDNSKTADNATKNAEPLINLDVNNPDFKAGVMALANLLQIQRHDDYLVMLKAIRILVQERLTQDAVAKANQTKEGLPVALDKHILGFDTGDAVLNEAAQILRLLHIEELRELQTKINEAIVAVQAIIADPKTDHRLGKVGR
binding [1]: binds
binding [2]: binds

Other lines, results leading:

binding [1]: no binding
binding [2]: no binding
Molecule: Ashwin (endogenous, HEK293T) (from UniProt Q9BVC5 1-232)

binding [1]: binds
binding [2]: binds
B2: RTCB (endogenous, HEK293T) (enzyme, UniProt Q9Y3I0 1-505)
chain: MSRSYNDELQFLEKINKNCWRIKKGFVPNMQVEGVFYVNDALEKLMFEELRNACRGGGVGGFLPAMKQIGNVAALPGIVHRSIGLPDVHSGYGFAIGNMAAFDMNDPEAVVSPGGVGFDINCGVRLLRTNLDESDVQPVKEQLAQAMFDHIPVGVGSKGVIPMNAKDLEEALEMGVDWSLREGYAWAEDKEHCEEYGRMLQADPNKVSARAKKRGLPQLGTLGAGNHYAEIQVVDEIFNEYAAKKMGIDHKGQVCVMIHSGSRGLGHQVATDALVAMEKAMKRDKIIVNDRQLACARIASPEGQDYLKGMAAAGNYAWVNRSSMTFLTRQAFAKVFNTTPDDLDLHVIYDVSHNIAKVEQHVVDGKERTLLVHRKGSTRAFPPHHPLIAVDYQLTGQPVLIGGTMGTCSYVLTGTEQGMTETFGTTCHGAGRALSRAKSRRNLDFQDVLDKLADMGIAIRVASPKLVMEEAPESYKNVTDVVNTCHDAGISKKAIKLRPIAVIKG
